# Test results from patent US4474762A (Bayer Aktiengesellschaft, priority 1981, dated 1984).
# Test: general procedure: peptide synthesis; N-hydroxysuccinimide esters
# Conditions: coupling step
substance,measurement,value
N-Glycyl-glycyl derivative of component B,step yield,60.3%
